Assay results from article PMC4974480.
These are yes or no findings as the source states them, for the method shown. In cells and extracts the contact can be indirect. Some results given as binding are weak or reduced against the parent protein; the word gives no strength.

Sequences of proteins named here, by UniProt entry; tags and fusion partners are left off. A change or cut given only in a name is not applied to a line headed by its entry.
UniProt Q60793: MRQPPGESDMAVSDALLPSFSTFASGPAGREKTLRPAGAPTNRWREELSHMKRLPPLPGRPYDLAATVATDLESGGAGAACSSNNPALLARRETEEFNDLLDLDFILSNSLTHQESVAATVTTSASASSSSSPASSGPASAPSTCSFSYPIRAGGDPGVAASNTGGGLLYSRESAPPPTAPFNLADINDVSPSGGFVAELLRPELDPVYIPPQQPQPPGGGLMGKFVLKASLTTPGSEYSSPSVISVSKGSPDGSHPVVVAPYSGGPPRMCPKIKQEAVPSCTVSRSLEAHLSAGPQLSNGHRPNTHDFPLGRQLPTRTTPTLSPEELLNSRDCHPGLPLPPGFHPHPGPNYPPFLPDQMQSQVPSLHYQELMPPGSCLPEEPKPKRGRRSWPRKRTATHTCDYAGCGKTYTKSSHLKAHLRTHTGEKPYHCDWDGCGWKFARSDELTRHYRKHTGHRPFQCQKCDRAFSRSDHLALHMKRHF
UniProt Q61026: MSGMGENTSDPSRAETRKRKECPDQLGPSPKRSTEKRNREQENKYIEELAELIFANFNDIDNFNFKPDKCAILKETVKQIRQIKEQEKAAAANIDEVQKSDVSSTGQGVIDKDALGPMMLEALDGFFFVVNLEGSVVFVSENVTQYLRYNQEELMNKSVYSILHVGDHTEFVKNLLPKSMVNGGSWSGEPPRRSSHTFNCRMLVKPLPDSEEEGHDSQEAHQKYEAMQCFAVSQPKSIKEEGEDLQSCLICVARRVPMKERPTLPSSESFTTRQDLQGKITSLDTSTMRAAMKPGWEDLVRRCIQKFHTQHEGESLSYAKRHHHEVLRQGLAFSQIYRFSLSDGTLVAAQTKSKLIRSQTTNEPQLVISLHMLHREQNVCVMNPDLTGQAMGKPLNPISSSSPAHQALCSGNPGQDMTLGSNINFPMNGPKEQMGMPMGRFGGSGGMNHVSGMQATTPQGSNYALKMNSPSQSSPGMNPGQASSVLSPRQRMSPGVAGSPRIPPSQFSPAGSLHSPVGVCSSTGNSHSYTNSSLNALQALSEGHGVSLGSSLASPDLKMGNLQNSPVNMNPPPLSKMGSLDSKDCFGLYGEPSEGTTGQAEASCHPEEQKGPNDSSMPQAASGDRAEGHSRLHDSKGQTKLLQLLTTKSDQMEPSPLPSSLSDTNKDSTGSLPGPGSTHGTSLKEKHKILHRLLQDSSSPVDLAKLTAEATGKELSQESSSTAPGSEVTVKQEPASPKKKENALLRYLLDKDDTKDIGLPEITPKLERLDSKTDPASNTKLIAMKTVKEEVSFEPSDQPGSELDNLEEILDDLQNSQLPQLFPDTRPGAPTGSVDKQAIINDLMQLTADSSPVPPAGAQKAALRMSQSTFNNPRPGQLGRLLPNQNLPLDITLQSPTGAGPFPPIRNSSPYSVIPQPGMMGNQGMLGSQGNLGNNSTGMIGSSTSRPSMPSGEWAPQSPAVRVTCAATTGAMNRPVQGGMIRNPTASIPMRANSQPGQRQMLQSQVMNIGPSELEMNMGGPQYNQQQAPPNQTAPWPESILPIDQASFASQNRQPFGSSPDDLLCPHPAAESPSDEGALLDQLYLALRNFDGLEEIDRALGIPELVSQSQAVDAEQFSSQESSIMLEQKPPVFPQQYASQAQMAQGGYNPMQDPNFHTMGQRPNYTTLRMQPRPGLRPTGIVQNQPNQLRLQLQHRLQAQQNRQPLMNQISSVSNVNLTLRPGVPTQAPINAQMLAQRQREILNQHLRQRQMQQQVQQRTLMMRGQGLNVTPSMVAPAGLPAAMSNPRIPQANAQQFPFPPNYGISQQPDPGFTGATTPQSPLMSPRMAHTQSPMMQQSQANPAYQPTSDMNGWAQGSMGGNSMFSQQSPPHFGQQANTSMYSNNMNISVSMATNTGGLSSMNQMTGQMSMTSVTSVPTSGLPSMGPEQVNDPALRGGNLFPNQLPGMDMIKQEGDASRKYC
UniProt Q15788: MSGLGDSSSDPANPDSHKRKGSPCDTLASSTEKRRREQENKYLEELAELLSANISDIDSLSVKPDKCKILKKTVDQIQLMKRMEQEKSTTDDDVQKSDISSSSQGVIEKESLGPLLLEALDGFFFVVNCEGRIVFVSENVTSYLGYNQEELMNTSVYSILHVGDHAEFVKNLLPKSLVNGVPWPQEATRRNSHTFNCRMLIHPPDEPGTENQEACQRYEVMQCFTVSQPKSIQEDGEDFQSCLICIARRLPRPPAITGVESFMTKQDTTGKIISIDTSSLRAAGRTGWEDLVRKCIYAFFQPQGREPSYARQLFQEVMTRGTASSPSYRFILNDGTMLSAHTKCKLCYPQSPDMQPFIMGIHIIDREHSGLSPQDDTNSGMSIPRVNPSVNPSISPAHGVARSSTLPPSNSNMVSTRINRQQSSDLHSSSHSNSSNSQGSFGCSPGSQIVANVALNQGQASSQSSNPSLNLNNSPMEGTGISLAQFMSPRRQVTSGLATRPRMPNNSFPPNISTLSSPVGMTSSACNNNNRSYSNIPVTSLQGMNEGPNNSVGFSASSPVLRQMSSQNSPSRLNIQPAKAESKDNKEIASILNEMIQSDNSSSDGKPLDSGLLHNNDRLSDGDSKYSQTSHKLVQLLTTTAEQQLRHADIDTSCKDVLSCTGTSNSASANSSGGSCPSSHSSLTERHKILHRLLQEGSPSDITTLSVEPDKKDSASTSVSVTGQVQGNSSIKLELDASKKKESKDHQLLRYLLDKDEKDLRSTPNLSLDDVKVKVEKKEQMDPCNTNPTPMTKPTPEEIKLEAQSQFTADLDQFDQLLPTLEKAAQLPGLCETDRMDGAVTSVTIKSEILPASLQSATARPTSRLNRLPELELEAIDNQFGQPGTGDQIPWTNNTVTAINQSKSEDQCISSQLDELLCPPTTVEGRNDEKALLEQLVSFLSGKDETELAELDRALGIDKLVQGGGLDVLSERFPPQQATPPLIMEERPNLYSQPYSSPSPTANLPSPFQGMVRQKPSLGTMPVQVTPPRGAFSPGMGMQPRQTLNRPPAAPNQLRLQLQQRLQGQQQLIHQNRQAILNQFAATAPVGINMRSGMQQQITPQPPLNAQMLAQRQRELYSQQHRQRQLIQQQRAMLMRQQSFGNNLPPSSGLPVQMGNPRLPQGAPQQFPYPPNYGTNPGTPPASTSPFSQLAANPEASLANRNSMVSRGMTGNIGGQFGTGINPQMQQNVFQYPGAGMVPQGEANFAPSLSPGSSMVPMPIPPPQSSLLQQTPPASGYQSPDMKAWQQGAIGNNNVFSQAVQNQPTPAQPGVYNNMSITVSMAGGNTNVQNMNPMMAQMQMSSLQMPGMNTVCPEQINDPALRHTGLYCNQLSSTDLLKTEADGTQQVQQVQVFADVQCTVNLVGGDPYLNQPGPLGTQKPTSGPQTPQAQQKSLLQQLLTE

Target: bacterially expressed full-length His-tagged KLF4 (UniProt Q60793)
Experiment: pull-down; His-KLF4 immobilised on metal-affinity resin; GRIP1 derivatives and SRC1 in vitro transcribed and translated with [35S]-methionine; autoradiography of bound material; only the target purified

binding | Substance
no binding | GRIP1 765C truncation mutant, in vitro transcribed and translated (from UniProt Q61026 765-1462) (domain or fragment)
binds | GRIP1 N765 truncation mutant, in vitro transcribed and translated (from UniProt Q61026 1-765) (domain or fragment)
binds | GRIP1 N1007 truncation mutant, in vitro transcribed and translated (from UniProt Q61026 1-1007) (domain or fragment)
no binding | full-length SRC1, in vitro transcribed and translated (from UniProt Q15788 1-1441)
